The values below come from paper PMC11609542.

Amino acid sequences for entries named in this document (tags omitted).
UniProt Q8TEB1: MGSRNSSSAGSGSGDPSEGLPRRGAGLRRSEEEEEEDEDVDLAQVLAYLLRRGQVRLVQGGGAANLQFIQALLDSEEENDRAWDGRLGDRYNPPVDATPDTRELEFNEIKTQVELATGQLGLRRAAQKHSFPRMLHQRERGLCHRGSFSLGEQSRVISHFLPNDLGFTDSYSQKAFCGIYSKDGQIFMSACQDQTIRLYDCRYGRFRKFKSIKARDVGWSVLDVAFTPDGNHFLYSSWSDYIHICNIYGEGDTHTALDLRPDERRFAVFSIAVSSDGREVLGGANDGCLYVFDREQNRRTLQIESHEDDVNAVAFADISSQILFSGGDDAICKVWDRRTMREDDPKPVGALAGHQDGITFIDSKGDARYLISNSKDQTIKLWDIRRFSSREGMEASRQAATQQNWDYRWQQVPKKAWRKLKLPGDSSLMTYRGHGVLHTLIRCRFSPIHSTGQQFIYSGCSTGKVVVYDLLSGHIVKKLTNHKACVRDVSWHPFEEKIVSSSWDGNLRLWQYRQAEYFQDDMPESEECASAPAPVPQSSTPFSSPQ
UniProt Q16531: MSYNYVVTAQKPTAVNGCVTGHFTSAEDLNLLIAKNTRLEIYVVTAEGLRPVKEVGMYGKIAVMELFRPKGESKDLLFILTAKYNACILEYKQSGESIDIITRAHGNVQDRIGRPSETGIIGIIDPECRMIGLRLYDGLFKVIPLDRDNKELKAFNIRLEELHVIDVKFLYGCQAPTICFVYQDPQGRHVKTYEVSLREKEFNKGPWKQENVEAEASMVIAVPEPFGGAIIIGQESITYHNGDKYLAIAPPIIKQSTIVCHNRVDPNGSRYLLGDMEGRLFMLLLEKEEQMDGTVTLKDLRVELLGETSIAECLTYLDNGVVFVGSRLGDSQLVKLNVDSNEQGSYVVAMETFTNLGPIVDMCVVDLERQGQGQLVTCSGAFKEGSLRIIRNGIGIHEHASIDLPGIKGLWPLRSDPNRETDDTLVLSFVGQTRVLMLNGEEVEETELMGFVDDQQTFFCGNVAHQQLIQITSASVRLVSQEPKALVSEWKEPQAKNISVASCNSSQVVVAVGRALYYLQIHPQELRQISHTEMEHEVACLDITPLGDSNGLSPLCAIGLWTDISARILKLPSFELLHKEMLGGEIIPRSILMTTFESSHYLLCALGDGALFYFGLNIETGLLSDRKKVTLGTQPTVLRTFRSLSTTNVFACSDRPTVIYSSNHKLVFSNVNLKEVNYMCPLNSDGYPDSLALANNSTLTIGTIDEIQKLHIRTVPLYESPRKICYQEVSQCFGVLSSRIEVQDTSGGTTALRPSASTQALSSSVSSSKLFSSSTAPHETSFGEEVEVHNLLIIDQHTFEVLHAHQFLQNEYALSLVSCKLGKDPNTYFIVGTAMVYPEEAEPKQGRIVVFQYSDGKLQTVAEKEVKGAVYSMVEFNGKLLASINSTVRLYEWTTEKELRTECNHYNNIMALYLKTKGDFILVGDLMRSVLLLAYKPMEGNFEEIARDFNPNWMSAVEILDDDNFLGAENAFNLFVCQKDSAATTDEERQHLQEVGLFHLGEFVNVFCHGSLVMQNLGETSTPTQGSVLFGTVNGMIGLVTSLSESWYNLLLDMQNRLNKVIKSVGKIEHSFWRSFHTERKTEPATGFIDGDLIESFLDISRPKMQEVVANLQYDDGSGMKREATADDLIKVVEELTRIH

Experiment [1] addresses Strep-tagged DCAF11 (human) (UniProt Q8TEB1). Nature of the experiment: affinity purification with mass spectrom.
Experiment [2] deals with Strep-tagged DDB1 (human) (UniProt Q16531). Nature of the experiment: affinity purification with mass spectrom.

Results are given in words; binding and its absence hold for the method and conditions named. In cells and extracts the contact can be indirect. Here binding means that the protein was enriched with, or labelled near, the bait; the list need not be complete.

B1: splicing factor SRSF5 (protein, UniProt Q13243 1-272)
chain: MSGCRVFIGRLNPAAREKDVERFFKGYGRIRDIDLKRGFGFVEFEDPRDADDAVYELDGKELCSERVTIEHARARSRGGRGRGRYSDRFSSRRPRNDRRNAPPVRTENRLIVENLSSRVSWQDLKDFMRQAGEVTFADAHRPKLNEGVVEFASYGDLKNAIEKLSGKEINGRKIKLIEGSKRHSRSRSRSRSRTRSSSRSRSRSRSRSRKSYSRSRSRSRSRSRSKSRSVSRSPVPEKSQKRGSSSRSKSPASVDRQRSRSRSRSRSVDSGN
In the case of B1, in experiment [1], the binding result was “binds”.

B2: splicing factor THRAP3 (protein, UniProt Q9Y2W1 1-955)
chain: MSKTNKSKSGSRSSRSRSASRSRSRSFSKSRSRSRSLSRSRKRRLSSRSRSRSYSPAHNRERNHPRVYQNRDFRGHNRGYRRPYYFRGRNRGFYPWGQYNRGGYGNYRSNWQNYRQAYSPRRGRSRSRSPKRRSPSPRSRSHSRNSDKSSSDRSRRSSSSRSSSNHSRVESSKRKSAKEKKSSSKDSRPSQAAGDNQGDEAKEQTFSGGTSQDTKASESSKPWPDATYGTGSASRASAVSELSPRERSPALKSPLQSVVVRRRSPRPSPVPKPSPPLSSTSQMGSTLPSGAGYQSGTHQGQFDHGSGSLSPSKKSPVGKSPPSTGSTYGSSQKEESAASGGAAYTKRYLEEQKTENGKDKEQKQTNTDKEKIKEKGSFSDTGLGDGKMKSDSFAPKTDSEKPFRGSQSPKRYKLRDDFEKKMADFHKEEMDDQDKDKAKGRKESEFDDEPKFMSKVIGANKNQEEEKSGKWEGLVYAPPGKEKQRKTEELEEESFPERSKKEDRGKRSEGGHRGFVPEKNFRVTAYKAVQEKSSSPPPRKTSESRDKLGAKGDFPTGKSSFSITREAQVNVRMDSFDEDLARPSGLLAQERKLCRDLVHSNKKEQEFRSIFQHIQSAQSQRSPSELFAQHIVTIVHHVKEHHFGSSGMTLHERFTKYLKRGTEQEAAKNKKSPEIHRRIDISPSTFRKHGLAHDEMKSPREPGYKAEGKYKDDPVDLRLDIERRKKHKERDLKRGKSRESVDSRDSSHSRERSAEKTEKTHKGSKKQKKHRRARDRSRSSSSSSQSSHSYKAEEYTEETEEREESTTGFDKSRLGTKDFVGPSERGGGRARGTFQFRARGRGWGRGNYSGNNNNNSNNDFQKRNREEEWDPEYTPKSKKYYLHDDREGEGSDKWVSRGRGRGAFPRGRGRFMFRKSSTSPKWAHDKFSGEEGEIEDDESGTENREEKDNIQPTTE
On to B2, for which the binding result in experiment [1] is listed as “binds”.

B3: mitochondrial chaperone TRAP1 (protein, UniProt Q12931 60-704)
chain: STQTAEDKEEPLHSIISSTESVQGSTSKHEFQAETKKLLDIVARSLYSEKEVFIRELISNASDALEKLRHKLVSDGQALPEMEIHLQTNAEKGTITIQDTGIGMTQEELVSNLGTIARSGSKAFLDALQNQAEASSKIIGQFGVGFYSAFMVADRVEVYSRSAAPGSLGYQWLSDGSGVFEIAEASGVRTGTKIIIHLKSDCKEFSSEARVRDVVTKYSNFVSFPLYLNGRRMNTLQAIWMMDPKDVREWQHEEFYRYVAQAHDKPRYTLHYKTDAPLNIRSIFYVPDMKPSMFDVSRELGSSVALYSRKVLIQTKATDILPKWLRFIRGVVDSEDIPLNLSRELLQESALIRKLRDVLQQRLIKFFIDQSKKDAEKYAKFFEDYGLFMREGIVTATEQEVKEDIAKLLRYESSALPSGQLTSLSEYASRMRAGTRNIYYLCAPNRHLAEHSPYYEAMKKKDTEVLFCFEQFDELTLLHLREFDKKKLISVETDIVVDHYKEEKFEDRSPAAECLSEKETEELMAWMRNVLGSRVTNVKVTLRLDTHPAMVTVLEMGAARHFLRMQQLAKTQEERAQLLQPTLEINPRHALIKKLNQLRASEPGLAQLLVDQIYENAMIAAGLVDDPRAMVGRLNELLVKALERH
In the case of B3, the binding entry in experiment [2] is “binds”.
